Assay results published in patent publication US20230034660A1, “PEPTIDES THAT ENHANCE NMDA RECEPTOR FUNCTION AND USE THEREOF” (University of Pittsburgh - Of the Commonwealth System of …, priority 2019, published 2023).
Some of these results come from one statement about several compounds together.

Biological target: T1, Flag-tagged ZnT1 (SLC30a1) protein (Mus musculus, UniProt Q60738)
T1 construct: made in house
T1 sequence (Q60738 1-503): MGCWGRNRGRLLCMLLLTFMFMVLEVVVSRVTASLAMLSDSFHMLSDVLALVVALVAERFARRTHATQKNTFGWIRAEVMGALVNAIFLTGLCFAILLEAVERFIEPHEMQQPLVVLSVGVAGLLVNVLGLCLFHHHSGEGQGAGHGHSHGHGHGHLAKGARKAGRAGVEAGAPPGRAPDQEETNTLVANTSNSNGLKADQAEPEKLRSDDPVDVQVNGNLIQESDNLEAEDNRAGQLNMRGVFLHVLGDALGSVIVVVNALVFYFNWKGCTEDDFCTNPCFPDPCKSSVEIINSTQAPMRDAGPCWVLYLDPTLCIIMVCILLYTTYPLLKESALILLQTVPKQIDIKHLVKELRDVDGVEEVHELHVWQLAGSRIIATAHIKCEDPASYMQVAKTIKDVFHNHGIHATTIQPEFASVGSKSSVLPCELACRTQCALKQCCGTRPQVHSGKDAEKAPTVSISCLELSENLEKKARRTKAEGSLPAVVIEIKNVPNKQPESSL
Experiment: Peptide spot array and far-Western assay: ZnT1 binding to GluN2A C-terminal 15-mers
Details: as shown in FIG. 1

## AVNDSYLRSSLRSTA [Peptide 6]
  GluN2A-ZnT1 interaction: inhibited GluN2A-ZnT1 interaction

## LPSQAVNDSYLRSSL [Peptide 2]
  GluN2A-ZnT1 interaction: inhibited GluN2A-ZnT1 interaction

## MPYAANKNNMYSTPR [Peptide 40]
  GluN2A-ZnT1 interaction: inhibited GluN2A-ZnT1 interaction

## MYSTPRVLNSCSNRR [Peptide 49]
  GluN2A-ZnT1 interaction: inhibited GluN2A-ZnT1 interaction

## NDSYLRSSLRSTASY [Peptide 8]
  GluN2A-ZnT1 interaction: inhibited GluN2A-ZnT1 interaction

## NMYSTPRVLNSCSNR [Peptide 48]
  GluN2A-ZnT1 interaction: inhibited GluN2A-ZnT1 interaction

## PSQAVNDSYLRSSLR [Peptide 3]
  GluN2A-ZnT1 interaction: inhibited GluN2A-ZnT1 interaction

## PYAANKNNMYSTPRV [Peptide 41]
  GluN2A-ZnT1 interaction: inhibited GluN2A-ZnT1 interaction

## QAVNDSYLRSSLRST [Peptide 5]
  GluN2A-ZnT1 interaction: inhibited GluN2A-ZnT1 interaction

## SQAVNDSYLRSSLRS [Peptide 4]
  GluN2A-ZnT1 interaction: inhibited GluN2A-ZnT1 interaction

## STPRVLNSCSNRRVY [Peptide 51]
  GluN2A-ZnT1 interaction: inhibited GluN2A-ZnT1 interaction

## TPRVLNSCSNRRVYK [Peptide 52]
  GluN2A-ZnT1 interaction: inhibited GluN2A-ZnT1 interaction

## VNDSYLRSSLRSTAS [Peptide 7]
  GluN2A-ZnT1 interaction: inhibited GluN2A-ZnT1 interaction

## YAANKNNMYSTPRVL [Peptide 42]
  GluN2A-ZnT1 interaction: inhibited GluN2A-ZnT1 interaction

## YSTPRVLNSCSNRRV [Peptide 50]
  GluN2A-ZnT1 interaction: inhibited GluN2A-ZnT1 interaction
